No constants are given. Whether binding was seen depends on the method and setting. In cells and extracts the contact can be indirect. Some binding calls cover weakened binding; strength is not graded here.
Target: T1, Aspartate β-hydroxylase (human (endogenous in BGC823)) (UniProt Q12797)
T1 sequence: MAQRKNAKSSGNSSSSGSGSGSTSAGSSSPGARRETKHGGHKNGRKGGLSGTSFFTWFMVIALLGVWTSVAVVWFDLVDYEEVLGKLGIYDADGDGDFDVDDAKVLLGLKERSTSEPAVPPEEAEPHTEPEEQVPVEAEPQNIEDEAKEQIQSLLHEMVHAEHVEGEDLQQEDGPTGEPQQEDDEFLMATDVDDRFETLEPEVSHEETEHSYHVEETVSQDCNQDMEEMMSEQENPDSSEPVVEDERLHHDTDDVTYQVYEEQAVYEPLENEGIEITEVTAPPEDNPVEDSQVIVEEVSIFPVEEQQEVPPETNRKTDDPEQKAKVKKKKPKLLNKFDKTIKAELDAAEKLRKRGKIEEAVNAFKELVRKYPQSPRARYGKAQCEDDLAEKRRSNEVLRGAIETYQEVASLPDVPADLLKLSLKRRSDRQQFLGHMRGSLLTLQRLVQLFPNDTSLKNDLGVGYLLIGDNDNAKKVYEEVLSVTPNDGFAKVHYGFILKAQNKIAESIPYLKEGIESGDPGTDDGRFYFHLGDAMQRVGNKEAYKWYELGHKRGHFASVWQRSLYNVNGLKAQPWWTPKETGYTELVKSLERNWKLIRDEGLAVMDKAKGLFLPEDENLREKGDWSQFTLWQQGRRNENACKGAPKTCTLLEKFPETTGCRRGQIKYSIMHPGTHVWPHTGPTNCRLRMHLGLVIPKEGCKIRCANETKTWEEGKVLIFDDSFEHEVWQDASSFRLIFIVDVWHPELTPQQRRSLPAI
Assay: co-IP; BGC823 lysate (IP lysis buffer: 20 mM Tris-HCl pH 7.5, 150 mM NaCl, 10% glycerol, 1 mM EDTA, 1% Triton X-100, 1 mM DTT); anti-ASPH and G/A beads at 4 °C overnight; Western blot with LAPTM4B antibody

B1: LAPTM4B (protein, UniProt Q86VI4 1-317)
chain: MTSRTRVTWPSPPRPLPVPAAAAVAFGAKGTDPAEARSSRGIEEAGPRAHGRAGREPERRRSRQQRRGGLQARRSTLLKTCARARATAPGAMKMVAPWTRFYSNSCCLCCHVRTGTILLGVWYLIINAVVLLILLSALADPDQYNFSSSELGGDFEFMDDANMCIAIAISLLMILICAMATYGAYKQRAAWIIPFFCYQIFDFALNMLVAITVLIYPNSIQEYIRQLPPNFPYRDDVMSVNPTCLVLIILLFISIILTFKGYLISCVWNCYRYINGRNSSDVLVYVTSNDTTVLLPPYDDATVNGAAKEPPPPYVSA
In the case of B1, the binding is reported as “binds”.

Source: paper PMC10053938
